Measurements as given in patent publication US20120190579A1, “Functionalisation of Solid Substrates” (priority 2009, published 2012).
At least one read-out could not be matched to a standard name with certainty.

By UniProt entry, the sequences of proteins in these tests, tags left out. Residues count along the entry.
UniProt P02701, 25-152: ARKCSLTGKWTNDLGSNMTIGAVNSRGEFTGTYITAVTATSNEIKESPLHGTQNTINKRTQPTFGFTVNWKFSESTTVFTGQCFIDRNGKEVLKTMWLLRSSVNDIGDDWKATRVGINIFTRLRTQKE

Target: neutravidin-coated agarose beads (Gallus gallus, UniProt P02701)
Assay: Pull-down and release of biotinylated protein adduct on neutravidin coated agarose beads
Conditions: correcting for irreversibly physisorbed protein (unmodified protein control)
Experimental: Protein/biotin-PEG-bromomaleimide adduct (200 μL) and unmodified model protein (200 μL) were washed independently with PBS buffer (3×500 μL) in a concentrator (Vivaspin, cut off 10 k) yielding protein solutions (300 μL) (In). For each of the protein solutions obtained, neutravidin-coated agarose beads (750 μL of 50% aqueous slurry) were washed with PBS (2×500 μL). Protein solution (300 μL) was then added to the beads and the mixture incubated at 4° C. for 30 mins. The mixture was centrifuged and the flow through (FT) collected. The beads were washed with PBS (2×500 μL) and both wash fractions collected (W1 and W2). Protein was released from the beads by incubation in PBS (300 μL) containing β-mercaptoethanol (25 mM) for 2 h at 37° C. The sample was centrifuged and the eluant (El) containing cleaved GrB2-SH2 domain L111C collected.
The amount of protein recovered was determined as 44% by comparison with a protein series dilution via densitometry. However, correcting for irreversibly physisorbed protein (determined using the unmodified protein control) the corrected recovery was 71%.

Substance: GrB2-SH2 Domain L111C/Biotin-PEG-bromomaleimide Adduct
- corrected recovery: 71%
